# Laboratory results reported in US5098920A, “1H-substituted-1,2,4-triazole compounds and methods of use thereof for treatment of cardiovascular disorders” (G. D. Searle & Co., priority 1990, dated 1992).
# At least one structure is not confirmed: it was looked up by name or label, or the drawing left a doubt.
# Biological target: smooth muscle angiotensin II receptor
# Assay: Assay A: Angiotensin II Binding Activity (displacement of 125I-AII, rat uterine membrane preparation)
# Conditions: 50% displacement of specifically bound 125I-AII; rat uterine membranes; 25° C., 60 min
# Method: Assay A: Angiotensin II Binding Activity
# Compounds of the invention were tested for ability to bind to the smooth muscle angiotensin II receptor using a rat uterine membrane preparation. […] Other chemicals were obtained from Sigma Chemical Co. This assay was carried out according to the method of Douglas et al [Endocrinology, 106, 120-124 (1980)]. Rat uterine membranes were prepared from fresh tissue. All procedures were carried out at 4° C. Uteri were stripped of fat and homogenized in phosphate-buffered saline at pH 7.4 containing 5 mM EDTA. The homogenate was centrifuged at 1500×g for 20 min., and the supernatant was recentrifuged at 100,000×g for 60 min. The pellet was resuspended in buffer consisting of 2 mM EDTA and 50 mM Tris-HCl (pH 7.5) to a final protein concentration of 4 mg/ml. […] The reaction was initiated by the addition of membrane protein and the mixture was incubated at 25° C. for 60 min. The incubation was terminated with ice-cold 50 mM Tris-HCl (pH 7.5) and the mixture was filtered to separate membrane-bound labelled peptide from the free ligand. The incubation tube and filter were washed with ice-cold buffer. Filters were assayed for radioactivity in a Micromedic gamma counter. Nonspecific binding was defined as binding in the presence of 10 μM of unlabelled AII. Specific binding was calculated as total binding minus nonspecific binding. […]
smiles,measurement,value
"CCCCc1nc(Cl)nn1Cc1ccc(-c2ccccc2C(=O)O)cc1 [Example 6, 4'-[(5-butyl-3-chloro-1H-1,2,4-triazol-1-yl)methyl][1,1'-biphenyl]-2-carboxylic acid]",IC50,1300 nM
